Laboratory results published in publication PMC10884747.
These are yes or no findings as the source states them, for the method shown. In cells and extracts the contact can be indirect. Some results given as binding are weak or reduced against the parent protein; the word gives no strength.

Protein sequences, listed by entry. Tags and fused reporters are not part of them.
UniProt O95758: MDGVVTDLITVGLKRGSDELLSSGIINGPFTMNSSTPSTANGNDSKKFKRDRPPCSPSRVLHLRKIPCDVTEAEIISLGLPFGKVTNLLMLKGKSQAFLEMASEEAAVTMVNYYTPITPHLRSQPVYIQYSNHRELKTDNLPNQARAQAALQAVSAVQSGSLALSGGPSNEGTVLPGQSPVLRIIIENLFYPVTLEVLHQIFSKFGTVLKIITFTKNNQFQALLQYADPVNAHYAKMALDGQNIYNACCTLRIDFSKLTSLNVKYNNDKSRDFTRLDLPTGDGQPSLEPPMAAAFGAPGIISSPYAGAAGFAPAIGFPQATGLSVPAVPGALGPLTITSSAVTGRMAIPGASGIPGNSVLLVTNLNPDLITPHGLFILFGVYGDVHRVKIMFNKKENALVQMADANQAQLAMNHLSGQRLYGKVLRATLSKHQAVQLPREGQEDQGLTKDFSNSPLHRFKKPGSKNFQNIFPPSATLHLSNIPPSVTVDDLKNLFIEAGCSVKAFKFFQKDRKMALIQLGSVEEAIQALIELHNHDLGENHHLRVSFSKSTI
UniProt O00425: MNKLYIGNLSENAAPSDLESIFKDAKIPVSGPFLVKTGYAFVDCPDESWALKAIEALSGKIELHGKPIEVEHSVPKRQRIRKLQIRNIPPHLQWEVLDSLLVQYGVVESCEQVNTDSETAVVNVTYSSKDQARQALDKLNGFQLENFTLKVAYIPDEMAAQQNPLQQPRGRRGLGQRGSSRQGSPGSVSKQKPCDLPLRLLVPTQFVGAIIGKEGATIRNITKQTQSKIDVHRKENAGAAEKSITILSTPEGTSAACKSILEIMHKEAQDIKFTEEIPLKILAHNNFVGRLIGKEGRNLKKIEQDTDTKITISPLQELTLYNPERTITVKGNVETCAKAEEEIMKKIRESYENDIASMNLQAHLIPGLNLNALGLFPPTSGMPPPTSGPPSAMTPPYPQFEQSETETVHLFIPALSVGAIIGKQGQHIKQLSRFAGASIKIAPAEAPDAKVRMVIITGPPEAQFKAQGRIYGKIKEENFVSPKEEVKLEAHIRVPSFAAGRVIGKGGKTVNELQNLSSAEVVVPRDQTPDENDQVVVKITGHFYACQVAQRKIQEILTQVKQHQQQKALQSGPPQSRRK

Key:
[1] = biological target: Polypyrimidine tract-binding protein 3 (PTBP3), endogenous (human (endogenous in 786-O and ACHN)) (UniProt O95758); experiment: co-IP; immunoprecipitation with anti-PTBP3 or anti-IGF2BP3 antibody from 786-O and ACHN cells, anti-IgG as negative control; endogenous proteins, Western blot
[2] = biological target: FLAG-tagged PTBP3 (exogenous) (UniProt O95758); experiment: co-IP; immunoprecipitation with anti-Flag antibody (PTBP3 FLAG tag) from 786-O and ACHN cells, anti-IgG as negative control; Western blot for IGF2BP3

binding [1]: binds
binding [2]: binds
Substance: Insulin-like growth factor 2 (IGF2) mRNA-binding protein 3 (IGF2BP3), endogenous (from UniProt O00425 1-579)
